Source: publication PMC6711988
Like-named read-outs stand apart in the source and are kept apart here. No constants are given. Whether binding was seen depends on the method and setting. Binding seen in cells or lysates may run through a third protein. These calls come from enrichment with a bait or labelling near it, and not all partners need be listed. For some assays here: A no says only that the protein was not detected with the bait. For some assays here: Where a sequence is shown, tags or fusion partners need not be part of it.

Amino acid sequences for entries named in this document (tags omitted). A change or cut given only in a name is not applied to a line headed by its entry.
UniProt Q7XZF5: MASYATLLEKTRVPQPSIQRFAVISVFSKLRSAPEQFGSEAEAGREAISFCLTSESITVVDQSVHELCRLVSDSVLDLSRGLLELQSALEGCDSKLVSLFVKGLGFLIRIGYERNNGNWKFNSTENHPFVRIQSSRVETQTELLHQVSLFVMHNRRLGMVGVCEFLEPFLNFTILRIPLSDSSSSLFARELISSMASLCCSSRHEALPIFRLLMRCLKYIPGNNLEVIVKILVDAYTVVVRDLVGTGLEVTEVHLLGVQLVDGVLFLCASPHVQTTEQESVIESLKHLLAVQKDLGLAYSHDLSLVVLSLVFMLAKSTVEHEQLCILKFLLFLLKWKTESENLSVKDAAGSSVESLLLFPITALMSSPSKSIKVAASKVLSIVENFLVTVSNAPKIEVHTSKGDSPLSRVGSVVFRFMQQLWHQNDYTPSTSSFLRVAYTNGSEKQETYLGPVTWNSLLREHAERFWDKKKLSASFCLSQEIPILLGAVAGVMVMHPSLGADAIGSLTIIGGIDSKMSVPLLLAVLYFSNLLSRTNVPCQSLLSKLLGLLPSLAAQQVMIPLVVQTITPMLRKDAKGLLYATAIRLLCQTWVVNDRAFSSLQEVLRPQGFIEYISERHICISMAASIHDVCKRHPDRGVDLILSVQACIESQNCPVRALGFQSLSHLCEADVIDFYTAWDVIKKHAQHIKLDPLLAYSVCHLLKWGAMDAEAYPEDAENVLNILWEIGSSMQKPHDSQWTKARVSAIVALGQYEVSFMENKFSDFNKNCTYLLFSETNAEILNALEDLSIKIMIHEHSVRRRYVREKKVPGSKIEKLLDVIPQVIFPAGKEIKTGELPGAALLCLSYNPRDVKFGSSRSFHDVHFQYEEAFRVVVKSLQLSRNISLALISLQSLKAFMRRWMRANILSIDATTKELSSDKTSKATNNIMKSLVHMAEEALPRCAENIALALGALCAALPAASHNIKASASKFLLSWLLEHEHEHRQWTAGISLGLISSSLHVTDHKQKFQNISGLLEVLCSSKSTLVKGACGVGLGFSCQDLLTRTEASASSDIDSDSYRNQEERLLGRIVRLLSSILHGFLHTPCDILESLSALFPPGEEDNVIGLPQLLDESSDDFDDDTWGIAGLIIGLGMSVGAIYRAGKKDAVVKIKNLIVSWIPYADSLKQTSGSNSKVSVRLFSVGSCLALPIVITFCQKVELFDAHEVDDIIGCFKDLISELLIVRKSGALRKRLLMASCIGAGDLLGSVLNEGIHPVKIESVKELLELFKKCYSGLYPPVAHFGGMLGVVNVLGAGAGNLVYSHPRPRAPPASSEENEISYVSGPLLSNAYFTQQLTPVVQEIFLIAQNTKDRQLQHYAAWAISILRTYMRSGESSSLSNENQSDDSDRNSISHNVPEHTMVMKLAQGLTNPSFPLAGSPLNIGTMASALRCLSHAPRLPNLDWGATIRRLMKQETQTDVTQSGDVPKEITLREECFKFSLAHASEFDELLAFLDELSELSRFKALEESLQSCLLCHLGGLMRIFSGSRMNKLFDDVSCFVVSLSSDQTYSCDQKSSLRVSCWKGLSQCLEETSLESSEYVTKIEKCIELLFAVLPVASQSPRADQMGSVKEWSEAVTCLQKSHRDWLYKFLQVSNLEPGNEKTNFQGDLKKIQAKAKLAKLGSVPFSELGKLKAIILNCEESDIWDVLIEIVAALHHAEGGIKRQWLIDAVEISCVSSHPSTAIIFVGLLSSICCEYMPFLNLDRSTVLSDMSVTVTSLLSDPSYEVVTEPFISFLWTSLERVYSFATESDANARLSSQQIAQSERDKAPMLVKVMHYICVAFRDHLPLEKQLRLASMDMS
UniProt F4JFM9: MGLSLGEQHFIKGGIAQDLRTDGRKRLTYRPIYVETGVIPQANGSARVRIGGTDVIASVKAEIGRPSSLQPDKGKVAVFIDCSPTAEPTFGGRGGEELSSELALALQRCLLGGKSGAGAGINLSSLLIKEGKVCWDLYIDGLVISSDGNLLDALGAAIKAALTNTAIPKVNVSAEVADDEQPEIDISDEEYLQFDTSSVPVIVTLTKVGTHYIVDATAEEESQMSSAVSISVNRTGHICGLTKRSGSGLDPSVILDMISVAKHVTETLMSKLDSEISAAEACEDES

Experiments:
Experiment in all cases: affinity purification with mass spectrometry; GFP-tagged bait captured from cleared lysate of Arabidopsis flower buds (50 mM Tris HCl pH 7.5, 25 or 50 mM NaCl, 1% Triton) on magnetic microbeads coupled to GFP antibodies, five washes; eluate analysed by nanoLC-MS/MS; enrichment against 20 control IPs (adjP < 0.05)
[1] = target: RESURRECTION1 (RST1) fused to GFP (Arabidopsis thaliana) (UniProt Q7XZF5)
[2] = target: T1, CER7-GFP (Arabidopsis thaliana) (UniProt Q9M209)
T1 sequence: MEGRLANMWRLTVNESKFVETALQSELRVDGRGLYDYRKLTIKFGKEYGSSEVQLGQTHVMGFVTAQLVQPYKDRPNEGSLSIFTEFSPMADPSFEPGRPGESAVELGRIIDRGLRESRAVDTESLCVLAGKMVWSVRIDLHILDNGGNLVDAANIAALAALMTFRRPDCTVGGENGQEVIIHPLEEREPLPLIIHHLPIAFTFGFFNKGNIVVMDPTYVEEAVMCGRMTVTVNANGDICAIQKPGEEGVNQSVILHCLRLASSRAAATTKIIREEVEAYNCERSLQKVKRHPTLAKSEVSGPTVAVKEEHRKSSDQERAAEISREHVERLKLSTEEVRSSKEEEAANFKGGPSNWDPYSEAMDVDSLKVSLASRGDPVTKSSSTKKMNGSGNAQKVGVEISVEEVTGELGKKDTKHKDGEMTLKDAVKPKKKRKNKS

[3] = target: T2, RRP41-GFP (Arabidopsis thaliana) (UniProt Q9SP08)
T2 sequence: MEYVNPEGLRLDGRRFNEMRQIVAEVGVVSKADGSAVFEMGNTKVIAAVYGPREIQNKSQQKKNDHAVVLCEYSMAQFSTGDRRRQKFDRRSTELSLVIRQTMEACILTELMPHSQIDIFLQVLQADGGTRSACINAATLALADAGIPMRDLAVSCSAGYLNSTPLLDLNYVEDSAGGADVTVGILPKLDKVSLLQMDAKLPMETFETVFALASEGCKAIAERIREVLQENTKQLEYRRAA

[4] = target: RESURRECTION1 (RST1) fused to GFP (Arabidopsis thaliana) (UniProt Q7XZF5); remark: listed apart in the source
[5] = target: T3, RRP45A-GFP (Arabidopsis thaliana) (UniProt Q9LDM2)
T3 sequence: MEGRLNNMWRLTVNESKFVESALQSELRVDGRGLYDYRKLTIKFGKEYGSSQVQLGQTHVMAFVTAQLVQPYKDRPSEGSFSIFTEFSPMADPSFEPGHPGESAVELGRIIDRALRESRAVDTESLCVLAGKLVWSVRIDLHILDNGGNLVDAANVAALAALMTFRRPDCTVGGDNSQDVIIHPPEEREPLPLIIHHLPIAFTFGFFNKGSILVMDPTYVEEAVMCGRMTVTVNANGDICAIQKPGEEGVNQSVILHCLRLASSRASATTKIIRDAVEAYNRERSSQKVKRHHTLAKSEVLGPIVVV

| Molecule | binding [1] | binding [2] | binding [3] | binding [4] | binding [5] |
| --- | --- | --- | --- | --- | --- |
| RRP42 (from UniProt F4JFM9) | binds |  |  |  |  |
| RST1 … PROTEIN (RIPR) (protein, UniProt F4K8S5 1-355) MDSKSLAKSKRAHTLHHSKKSHSVHKPKVPGVSEKNPEKLQGNQTKSPVQSRRVSALPSNWDRYDDELDAAEDSSISLHSDVIVPKSKGADYLHLISEAQAESNSKIENNLDCLSSLDDLLHDEFSRVVGSMISARGEGILSWMEDDNFVVEEDGSGSYQEPGFLSLNLNVLAKTLENVDLHERLYIDPDLLPLPELNTSQTKVSRNEEPSHSHIAQNDPIVVPGESSVREAESLDQVKDILILTDESEKSSAIEADLDLLLNSFSEAHTQPNPVASASGKSSAFETELDSLLKSHSSTEQFNKPGNPSDQKIHMTGFNDVLDDLLESTPVSIIPQSNQTSSKVLDDFDSWLDTI |  | binds | binds | binds | no binding |
